Assay results published in patent US20110217715A1, “GENE EXPRESSION IN DUCHENNE MUSCULAR DYSTROPHY” (CHILDREN'S HOSPITAL MEDICAL CENTER, priority 2008, published 2011).
This continues a long series; more values of the same kind are listed elsewhere.

Tested on: mRNA expression in peripheral blood of individuals with DMD
Assay: Whole-blood gene expression microarray: DMD administered deflazacort vs DMD administered prednisone
Format: in vivo, human
Method: Fifteen ml of blood was collected from each individual into 6 PAXgene® Vacutainer® tubes (PreAnalytiX, Germany) by antecubital fossa venipuncture. PAXgene® tubes contain a proprietary reagent that immediately stabilizes RNA, thus reducing RNA degradation and minimizing gene expression changes following phlebotomy. The tubes were then inverted 20 times, then remained undisturbed for 2 h at room temperature (about 19° C. to about 22° C.), and then stored at -70° C. until processed. Total RNA was isolated using the Paxgene® blood RNA kit (PreAnalytiX, Germany) according to the manufacturers instructions. The RNA isolated is from all cells in whole blood. Typical yields of total RNA isolated from about 7.5 ml of human whole blood were between 10 μg RNA and 40 μg RNA. RNA quality and purity was analyzed by spectrophotometry using the Nanodrop ND-1000, and RNA integrity was analyzed using the Agilent 2100 Bioanalyzer. […] Sample labeling, hybridization to chips, and image scanning were performed using standard Affymetrix protocols. For each whole blood sample from control individuals and individuals with DMD, total RNA was labeled using the One-Cycle Target Labeling protocol and hybridized to the arrays. […] Double-stranded cDNA synthesis, biotin-labeled cRNA synthesis, and cRNA fragmentation were performed according to the Affymetrix GeneChip Eukaryotic Expression Analysis protocol. The labeled, fragmented cRNA (15 μg) was hybridized at 45° C. overnight. After hybridization, the array was washed and stained. The arrays were scanned with an argon-ion laser at λ=570 nm, with a resolution of 3 μm/pixel (Affymetrix, Inc.). After scanning the array, the raw probe level values for each probe were saved in Affymetrix.cel files. […] Statistical analyses, including t-test analyses, unsupervised hierarchical clustering, and principal component analyses were conducted using Genespring 7.2 software ([…]® 7, Silicon Genetics, Redwood City Calif.). […] Corrections for multiple comparisons used a Benjamini-Hochberg False Discovery Rate (FDR) of 0.05, disclosed in Tang et al., J Cereb Blood Flow Metab 26 (2006) 1089, which is expressly incorporated by reference herein in its entirety. […] Sample processing and array hybridization, probe-level data analysis, and statistical analysis were identical to Example 1.

CC(=O)OCC(=O)[C@@]12N=C(C)O[C@@H]1C[C@H]1[C@@H]3CCC4=CC(=O)C=C[C@]4(C)[C@H]3[C@@H](O)C[C@@]12C [deflazacort]
p-value (SLIC1, AI081246, nucleic acid 2215, vs. prednisone): 0.0159 | p-value (SMARCA4, D26156, nucleic acid 2216, vs. prednisone): 0.0291 | p-value (SMC5L1, BC035661, nucleic acid 2217, vs. prednisone): 0.0179 | p-value (SND1, AI374686, nucleic acid 2218, vs. prednisone): 0.0162 | p-value (SNX1, AK098001, nucleic acid 2219, vs. prednisone): 0.0426 | p-value (SOD2, W46388, nucleic acid 2220, vs. prednisone): 0.0239 | p-value (SP2, D28588, nucleic acid 2222, vs. prednisone): 0.0386 | p-value (SP3, N23846, nucleic acid 2223, vs. prednisone): 0.0499 | p-value (SP110, AF280094, nucleic acid 2221, vs. prednisone): 0.0401 | p-value (SPAG9, BC007524, nucleic acid 2224, vs. prednisone): 0.0493 | p-value (ST8SIA4, AA352113, nucleic acid 1171, vs. prednisone): 0.0441 | p-value (STAT3, AA634272, nucleic acid 2226, vs. prednisone): 0.0328 | p-value (STAT3, AI139252, nucleic acid 2227, vs. prednisone): 0.0405 | p-value (STAT3, BC000627, nucleic acid 2225, vs. prednisone): 0.025 | p-value (STEAP4, AA650281, nucleic acid 2228, vs. prednisone): 0.0195 | p-value (SULT1A1, NM_001055, nucleic acid 2229, vs. prednisone): 0.0233 | p-value (SULT1A3, SULT1A4, U08032, nucleic acid 2230, vs. prednisone): 0.0234 | p-value (SVIL, BC022883, nucleic acid 2231, vs. prednisone): 0.0273 | p-value (SYK, AW467357, nucleic acid 2232, vs. prednisone): 0.0336 | p-value (Similar to hypothetical protein FLJ36144, Genbank AI090764, Nucleic Acid No. 2280): 0.00719 | p-value (Similar to transcript increased in spermiogenesis 78, Genbank AK026679, Nucleic Acid No. 2331): 0.044 | p-value (TAL1, AW300901, nucleic acid 2322, vs. prednisone): 0.0248 | p-value (TAX1BP3, AF234997, nucleic acid 2233, vs. prednisone): 0.027 | p-value (TBC1D22A, AI597838, nucleic acid 2234, vs. prednisone): 0.0353 | p-value (TGFB1, BC000125, nucleic acid 2235, vs. prednisone): 0.0114 | p-value (TGFBR3, NM_003243, nucleic acid 2236, vs. prednisone): 0.0469 | p-value (TGOLN2, NM_006464, nucleic acid 1425, vs. prednisone): 0.00127 | p-value (THRAP2, AK025348, nucleic acid 2237, vs. prednisone): 0.04 | p-value (TIAF1, MYO18A, NM_004740, nucleic acid 2238, vs. prednisone): 0.0229 | p-value (TJP2, NM_004817, nucleic acid 675, vs. prednisone): 0.0455 | p-value (TLE3, AI567426, nucleic acid 2239, vs. prednisone): 0.0127 | p-value (TLE3, NM_005078, nucleic acid 2240, vs. prednisone): 0.0216 | p-value (TLR1, AL050262, nucleic acid 2241, vs. prednisone): 0.0328 | p-value (TMCC1, AB018322, nucleic acid 1003, vs. prednisone): 0.0328 | p-value (TMCC1, AI934469, nucleic acid 2242, vs. prednisone): 0.0345 | p-value (TMEM16F, AL041280, nucleic acid 2243, vs. prednisone): 0.0268 | p-value (TMPRSS6, AL022314, nucleic acid 2323, vs. prednisone): 0.0304 | p-value (TNFSF10, NM_003810, nucleic acid 2244, vs. prednisone): 0.0148 | p-value (TNFSF10, U57059, nucleic acid 2245, vs. prednisone): 0.0367 | p-value (TNFSF13, TNFSF12-TNFSF13, AF114011, nucleic acid 2247, vs. prednisone): 0.0208 | p-value (TNFSF13, TNFSF12-TNFSF13, AF114013, nucleic acid 2246, vs. prednisone): 0.012 | p-value (TNFSF13B, AF134715, nucleic acid 2248, vs. prednisone): 0.0196 | p-value (TNRC5, AF161347, nucleic acid 2249, vs. prednisone): 0.00226 | p-value (TPARL, AW665624, nucleic acid 939, vs. prednisone): 0.0263 | p-value (TPP1, BG231932, nucleic acid 2250, vs. prednisone): 0.00621 | p-value (TPP1, NM_000391, nucleic acid 920, vs. prednisone): 0.000155 | p-value (TRIM8, NM_030912, nucleic acid 2252, vs. prednisone): 0.00322 | p-value (TRIM38, AI809831, nucleic acid 2251, vs. prednisone): 0.018 | p-value (Transcribed locus, Genbank AI718964, Nucleic Acid No. 2292): 0.0211 | p-value (Transcribed locus, Genbank AI916948, Nucleic Acid No. 1660): 0.0303 | p-value (Transcribed locus, Genbank AW293956, Nucleic Acid No. 2300): 0.0326 | p-value (Transcribed locus, Genbank AW451107, Nucleic Acid No. 2283): 0.0133 | p-value (Transcribed locus, Genbank AW954199, Nucleic Acid No. 2333): 0.0452 | p-value (Transcribed locus, Genbank BF514098, Nucleic Acid No. 2330): 0.0439 | p-value (Transcribed locus, Genbank H94876, Nucleic Acid No. 2329): 0.0435 | p-value (Transcribed locus, weakly similar to NP_060312.1, Genbank AA838727, Nucleic Acid No. 2282): 0.0115 | p-value (U20489, nucleic acid 2281, vs. prednisone): 0.0108 | p-value (UBE2D3, AI239832, nucleic acid 2253, vs. prednisone): 0.0322 | p-value (UBE2J1, N64079, nucleic acid 2254, vs. prednisone): 0.0247 | p-value (UBE3B, AK022019, nucleic acid 2255, vs. prednisone): 0.0134 | p-value (USP15, AU156202, nucleic acid 2256, vs. prednisone): 0.0357 | p-value (VCL, NM_014000, nucleic acid 2257, vs. prednisone): 0.000443 | p-value (VPS37C, BM452172, nucleic acid 2258, vs. prednisone): 0.00954 | p-value (VPS41, AF135593, nucleic acid 342, vs. prednisone): 0.0126 | p-value (WARS, NM_004184, nucleic acid 2259, vs. prednisone): 0.0139 | p-value (WASL, AK025323, nucleic acid 2260, vs. prednisone): 0.0268 | p-value (WDR40A, AL555107, nucleic acid 2324, vs. prednisone): 0.0469 | p-value (WIRE, AK026913, nucleic acid 2261, vs. prednisone): 0.00508 | p-value (WNK1, AL049278, nucleic acid 2262, vs. prednisone): 0.0169 | p-value (XPO1, BC041658, nucleic acid 2263, vs. prednisone): 0.0377 | p-value (YOD1, AF090896, nucleic acid 2325, vs. prednisone): 0.0189 | p-value (YWHAH, NM_003405, nucleic acid 1807, vs. prednisone): 0.018 | p-value (ZAK, AW069181, nucleic acid 2264, vs. prednisone): 0.00126 | p-value (ZCCHC2, AU147903, nucleic acid 2266, vs. prednisone): 0.0424 | p-value (ZCCHC2, BE676543, nucleic acid 2265, vs. prednisone): 0.0109 | p-value (ZCCHC2, NM_017742, nucleic acid 677, vs. prednisone): 0.022 | p-value (ZCCHC6, AA584428, nucleic acid 2267, vs. prednisone): 0.0477 | p-value (ZFHX1B, AF086037, nucleic acid 2268, vs. prednisone): 0.0124 | p-value (ZFHX1B, AI623184, nucleic acid 2269, vs. prednisone): 0.0233 | p-value (ZFP36L1, BE620915, nucleic acid 2270, vs. prednisone): 0.0409 | p-value (ZNF160, AA701249, nucleic acid 1369, vs. prednisone): 0.028 | p-value (ZNF264, NM_003417, nucleic acid 2271, vs. prednisone): 0.00262 | p-value (ZNF595, AI580142, nucleic acid 2326, vs. prednisone): 0.00776 | p-value (ZNF626, NM_145297, nucleic acid 2327, vs. prednisone): 0.0179 | p-value (ZNF652, NM_014897, nucleic acid 2272, vs. prednisone): 0.0417 | p-value (ZYG11B, AV701229, nucleic acid 2273, vs. prednisone): 0.00211 | p-value (ZYG11B, N21008, nucleic acid 2274, vs. prednisone): 0.0262 | p-value (ZYX, BC002323, nucleic acid 2275, vs. prednisone): 0.0212 | p-value (gene BGR, Genbank AW341515, Nucleic Acid No. 2310): 0.00516 | p-value (gene C1orf128, Genbank AF271784, Nucleic Acid No. 2311): 0.031 | p-value (gene CDC27, Genbank AA166684, Nucleic Acid No. 2312): 0.0359 | p-value (gene FGFR1OP2, Genbank W74643, Nucleic Acid No. 1750): 0.0301 | p-value (gene FLJ37562, Genbank BF436799, Nucleic Acid No. 2313): 0.0328
